Laboratory results: patent publication US10525115B2 (Immatics Biotechnologies GmbH, priority 2014, dated 2020)

Columns and labels:
Set-up in all cases: species or system human
[1] = test system: cancer tissues in comparison to non-cancerous tissues and organs; experiment: Presentation profile / over-presentation by label-free LC-MS (XPRESIDENT), tumor versus normal tissues, other proliferative diseases; details: other proliferative diseases / organs (other than AML) that over- or exclusively present the peptide; Table 5
[2] = test system: primary AML samples; experiment: HLA class II ligandome analysis (LC-MS/MS) of primary AML samples; details: HLA class II ligandome, AML patients n=12
[3] = test system: primary AML samples; experiment: HLA class I ligandome analysis (W6/32 immunoaffinity purification, LC-MS/MS) of primary AML samples; details: 15 AML samples; for Number of positive AMLs: HLA class I ligandome; for rep. frequency % in AMLs: source protein level, HLA class I
[4] = test system: BMNC of healthy donors; experiment: HLA class I ligandome analysis (LC-MS/MS) of healthy donor BMNC; details: 5 BMNC samples; for Number of positive healthy donors (BMNC): HLA class I ligandome, second figure of the cell; for rep. frequency % in healthy donors (BMNC): source protein level

Substance | Proliferative disease and location thereof [1] | Number of positive AMLs [2] | Number of positive AMLs [3] | rep. frequency % in AMLs [3] [%] | Number of positive healthy donors (BMNC) [4] | rep. frequency % in healthy donors (BMNC) [4] [%]
557 (SPNIVIALSGNKADL; listed as Homo sapiens) [compound 557] | brain, glioblastoma, endometrium, adenocarcinoma | 1 | – | – | – | –
558 (SPNIVIALSGNKADLA; listed as Homo sapiens) [compound 558] | brain, glioblastoma, endometrium, adenocarcinoma | 3 | – | – | – | –
559 (TPPRLVAPRFLEVE; listed as Homo sapiens) [compound 559] | stomach, metastatic, non-Hodgkin's lymphoma | 1 | – | – | – | –
560 (TPPRLVAPRFLEVET; listed as Homo sapiens) [compound 560] | stomach, metastatic, non-Hodgkin's lymphoma | 1 | – | – | – | –
561 (TPPRLVAPRFLEVETS; listed as Homo sapiens) [compound 561] | stomach, metastatic, non-Hodgkin's lymphoma | 3 | – | – | – | –
562 (EIQRDILLEKKKVAQDQ; listed as Homo sapiens) [compound 562] | stomach, metastatic, liver, hepatic adenoma | 1 | – | – | – | –
563 (FGAIFFLPDSSK; listed as Homo sapiens) [compound 563] | stomach, metastatic, liver, hepatic adenoma | 1 | – | – | – | –
564 (IQRDILLEKKKVAQ; listed as Homo sapiens) [compound 564] | stomach, metastatic, liver, hepatic adenoma | 1 | – | – | – | –
565 (IQRDILLEKKKVAQD; listed as Homo sapiens) [compound 565] | stomach, metastatic, liver, hepatic adenoma | 1 | – | – | – | –
566 (IQRDILLEKKKVAQDQ; listed as Homo sapiens) [compound 566] | stomach, metastatic, liver, hepatic adenoma | 1 | – | – | – | –
567 (LSGVLFHSSPALQPA; listed as Homo sapiens) [compound 567] | stomach, metastatic, liver, hepatic adenoma | 1 | – | – | – | –
568 (RDILLEKKKVAQDQ; listed as Homo sapiens) [compound 568] | stomach, metastatic, liver, hepatic adenoma | 1 | – | – | – | –
569 (SSKLLSGVLFHSSPA; listed as Homo sapiens) [compound 569] | stomach, metastatic, liver, hepatic adenoma | 1 | – | – | – | –
570 (SSPALQPAADHKPGPG; listed as Homo sapiens) [compound 570] | stomach, metastatic, liver, hepatic adenoma | 1 | – | – | – | –
575 (GGSAAAAAAAAASGG; listed as Homo sapiens) [compound 575] | liver, hepatocellular carcinoma, myometrium, leiomyoma | 1 | – | – | – | –
576 (DNMLLAEGVSGPEK; listed as Homo sapiens) [compound 576] | liver, hepatocellular carcinoma, adrenal gland, adrenal cortical adenoma | 2 | – | – | – | –
577 (ADSLYVEKIDVGEAEPR; listed as Homo sapiens) [compound 577] | esophagus, adenocarcinoma | 3 | – | – | – | –
578 (RIQLVEEELDRAQER; listed as Homo sapiens) [compound 578] | pancreas, adenocarcinoma, intramuscular lipoma | 2 | – | – | – | –
579 (RRIQLVEEELDRAQER; listed as Homo sapiens) [compound 579] | pancreas, adenocarcinoma, intramuscular lipoma | 1 | – | – | – | –
580 (HQPHKVTQYKKGKDSLY; listed as Homo sapiens) [compound 580] | liposarcoma | 2 | – | – | – | –
581 (RKKAKTTKKIVL; listed as Homo sapiens) [compound 581] | liposarcoma | 1 | – | – | – | –

Substance | Proliferative disease and location thereof [1] | Number of positive AMLs [2] | Number of positive AMLs [3] | rep. frequency % in AMLs [3] [%] | Number of positive healthy donors (BMNC) [4] | rep. frequency % in healthy donors (BMNC) [4] [%]
582 (DVFRQYASLTGTQALPP; listed as Homo sapiens) [compound 582] | liver, hepatocellular carcinoma, cancer, small intestine, gastrointestinal stromal tumor | 1 | – | – | – | –
583 (GTAQGELFLDDGHT; listed as Homo sapiens) [compound 583] | liver, hepatocellular carcinoma, cancer, small intestine, gastrointestinal stromal tumor | 1 | – | – | – | –
584 (VFRQYASLTGTQALPP; listed as Homo sapiens) [compound 584] | liver, hepatocellular carcinoma, cancer, small intestine, gastrointestinal stromal tumor | 1 | – | – | – | –
588 (ASPSESEARFRIDSVSEGNAGPY; listed as Homo sapiens) [compound 588] | pancreas, adenocarcinoma, lipoma | 1 | – | – | – | –
589 (EARFRIDSVSEGNAGP; listed as Homo sapiens) [compound 589] | pancreas, adenocarcinoma, lipoma | 1 | – | – | – | –
590 (ESEARFRIDSVSEGNAGP; listed as Homo sapiens) [compound 590] | pancreas, adenocarcinoma, lipoma | 1 | – | – | – | –
591 (ESEARFRIDSVSEGNAGPY; listed as Homo sapiens) [compound 591] | pancreas, adenocarcinoma, lipoma | 1 | – | – | – | –
592 (FRIDSVSEGNAGP; listed as Homo sapiens) [compound 592] | pancreas, adenocarcinoma, lipoma | 1 | – | – | – | –
593 (FRIDSVSEGNAGPY; listed as Homo sapiens) [compound 593] | pancreas, adenocarcinoma, lipoma | 1 | – | – | – | –
594 (SEARFRIDSVSEGNAGPY; listed as Homo sapiens) [compound 594] | pancreas, adenocarcinoma, lipoma | 3 | – | – | – | –
595 (SPSESEARFRIDSVSEGNAGPY; listed as Homo sapiens) [compound 595] | pancreas, adenocarcinoma, lipoma | 1 | – | – | – | –
596 (GNQLFRINEANQL; listed as Homo sapiens) [compound 596] | stomach, adenocarcinoma, prostate, adenocarcinoma | 1 | – | – | – | –
597 (GNQLFRINEANQLMQ; listed as Homo sapiens) [compound 597] | stomach, adenocarcinoma, prostate, adenocarcinoma | 2 | – | – | – | –
598 (SPAMAGGLFAIERE; listed as Homo sapiens) [compound 598] | stomach, adenocarcinoma, prostate, adenocarcinoma | 1 | – | – | – | –
603 (FEGQFSINKVPGNFH; listed as Homo sapiens) [compound 603] | kidney, clear cell renal cell carcinoma, prostate, adenocarcinoma | 3 | – | – | – | –
604 (FEGQFSINKVPGNFHVS; listed as Homo sapiens) [compound 604] | kidney, clear cell renal cell carcinoma, prostate, adenocarcinoma | 2 | – | – | – | –
605 (RFEGQFSINKVPGNFH; listed as Homo sapiens) [compound 605] | kidney, clear cell renal cell carcinoma, prostate, adenocarcinoma | 2 | – | – | – | –
KLF2 kruppel like factor 2: established AML-associated antigen, source protein of the HLA ligands listed under it | – | – | 4 | 26.7 | 0 | 0.0
NPM1 nucleophosmin: established AML-associated antigen, source protein of the HLA ligands listed under it | – | – | 9 | 60.0 | 1 | 20.0
WT1 Wilms tumor 1: established AML-associated antigen, source protein of the HLA ligands listed under it | – | – | 3 | 20.0 | 0 | 0.0
